Reference: patent publication US20030198640A1
Results are given in words; binding and its absence hold for the method and conditions named. For some assays here: In cells and extracts the contact can be indirect. Some results given as binding are weak or reduced against the parent protein; the word gives no strength.

Chains of the proteins cited; added tags and fusions are not shown. Lines headed by an entry give the natural chain unless they say otherwise; changes in a name come on top. Residues count along the entry.
UniProt P25445, residues 191-335: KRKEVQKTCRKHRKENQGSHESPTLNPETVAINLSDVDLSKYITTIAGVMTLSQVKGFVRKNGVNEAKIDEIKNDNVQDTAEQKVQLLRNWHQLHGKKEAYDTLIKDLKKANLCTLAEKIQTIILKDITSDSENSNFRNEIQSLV
UniProt O95150: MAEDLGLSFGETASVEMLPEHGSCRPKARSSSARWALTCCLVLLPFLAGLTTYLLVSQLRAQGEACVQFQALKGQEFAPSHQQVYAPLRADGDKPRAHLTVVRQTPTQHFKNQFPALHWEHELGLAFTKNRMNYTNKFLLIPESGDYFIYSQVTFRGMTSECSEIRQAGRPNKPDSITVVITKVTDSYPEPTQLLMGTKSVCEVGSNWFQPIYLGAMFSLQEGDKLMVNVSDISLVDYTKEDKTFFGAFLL
UniProt Q13158: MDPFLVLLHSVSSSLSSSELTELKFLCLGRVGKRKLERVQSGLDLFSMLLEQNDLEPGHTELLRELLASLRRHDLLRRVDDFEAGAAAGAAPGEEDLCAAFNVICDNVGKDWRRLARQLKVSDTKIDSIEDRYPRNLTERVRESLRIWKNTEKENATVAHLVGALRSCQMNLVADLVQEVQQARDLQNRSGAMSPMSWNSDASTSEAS

Legend:
[1] = molecular target: T1, death domain truncated DR3 (DR3ΔDD, aa 1-345), on transfected cells (human) (UniProt Q93038); experiment: flow cytometry on transiently transfected cells
T1 sequence: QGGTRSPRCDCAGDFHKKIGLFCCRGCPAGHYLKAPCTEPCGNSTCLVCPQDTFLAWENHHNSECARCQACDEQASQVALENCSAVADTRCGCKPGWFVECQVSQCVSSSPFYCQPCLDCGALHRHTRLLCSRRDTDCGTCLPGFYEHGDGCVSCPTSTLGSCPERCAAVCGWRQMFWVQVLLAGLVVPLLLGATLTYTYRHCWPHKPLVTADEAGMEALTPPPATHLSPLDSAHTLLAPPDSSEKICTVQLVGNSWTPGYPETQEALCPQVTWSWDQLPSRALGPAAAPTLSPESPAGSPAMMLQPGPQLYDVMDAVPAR

[2] = molecular target: GST fusion of the cytoplasmic domain of Fas (UniProt P25445); experiment: GST pull-down of in vitro translated 35S-labelled protein

binding [2] | Substance | binding [1]
 | FLAG-tagged soluble form of TNF-gamma-beta (aa 72-251) (from UniProt O95150 72-251) (ligand) | binds
binds | FADD (AU1-FADD) (from UniProt Q13158 1-208) | 
